From PMC4650837
These are yes or no findings as the source states them, for the method shown.

Chains of the proteins cited; added tags and fusions are not shown. Lines headed by an entry give the natural chain unless they say otherwise; changes in a name come on top.
UniProt P42858: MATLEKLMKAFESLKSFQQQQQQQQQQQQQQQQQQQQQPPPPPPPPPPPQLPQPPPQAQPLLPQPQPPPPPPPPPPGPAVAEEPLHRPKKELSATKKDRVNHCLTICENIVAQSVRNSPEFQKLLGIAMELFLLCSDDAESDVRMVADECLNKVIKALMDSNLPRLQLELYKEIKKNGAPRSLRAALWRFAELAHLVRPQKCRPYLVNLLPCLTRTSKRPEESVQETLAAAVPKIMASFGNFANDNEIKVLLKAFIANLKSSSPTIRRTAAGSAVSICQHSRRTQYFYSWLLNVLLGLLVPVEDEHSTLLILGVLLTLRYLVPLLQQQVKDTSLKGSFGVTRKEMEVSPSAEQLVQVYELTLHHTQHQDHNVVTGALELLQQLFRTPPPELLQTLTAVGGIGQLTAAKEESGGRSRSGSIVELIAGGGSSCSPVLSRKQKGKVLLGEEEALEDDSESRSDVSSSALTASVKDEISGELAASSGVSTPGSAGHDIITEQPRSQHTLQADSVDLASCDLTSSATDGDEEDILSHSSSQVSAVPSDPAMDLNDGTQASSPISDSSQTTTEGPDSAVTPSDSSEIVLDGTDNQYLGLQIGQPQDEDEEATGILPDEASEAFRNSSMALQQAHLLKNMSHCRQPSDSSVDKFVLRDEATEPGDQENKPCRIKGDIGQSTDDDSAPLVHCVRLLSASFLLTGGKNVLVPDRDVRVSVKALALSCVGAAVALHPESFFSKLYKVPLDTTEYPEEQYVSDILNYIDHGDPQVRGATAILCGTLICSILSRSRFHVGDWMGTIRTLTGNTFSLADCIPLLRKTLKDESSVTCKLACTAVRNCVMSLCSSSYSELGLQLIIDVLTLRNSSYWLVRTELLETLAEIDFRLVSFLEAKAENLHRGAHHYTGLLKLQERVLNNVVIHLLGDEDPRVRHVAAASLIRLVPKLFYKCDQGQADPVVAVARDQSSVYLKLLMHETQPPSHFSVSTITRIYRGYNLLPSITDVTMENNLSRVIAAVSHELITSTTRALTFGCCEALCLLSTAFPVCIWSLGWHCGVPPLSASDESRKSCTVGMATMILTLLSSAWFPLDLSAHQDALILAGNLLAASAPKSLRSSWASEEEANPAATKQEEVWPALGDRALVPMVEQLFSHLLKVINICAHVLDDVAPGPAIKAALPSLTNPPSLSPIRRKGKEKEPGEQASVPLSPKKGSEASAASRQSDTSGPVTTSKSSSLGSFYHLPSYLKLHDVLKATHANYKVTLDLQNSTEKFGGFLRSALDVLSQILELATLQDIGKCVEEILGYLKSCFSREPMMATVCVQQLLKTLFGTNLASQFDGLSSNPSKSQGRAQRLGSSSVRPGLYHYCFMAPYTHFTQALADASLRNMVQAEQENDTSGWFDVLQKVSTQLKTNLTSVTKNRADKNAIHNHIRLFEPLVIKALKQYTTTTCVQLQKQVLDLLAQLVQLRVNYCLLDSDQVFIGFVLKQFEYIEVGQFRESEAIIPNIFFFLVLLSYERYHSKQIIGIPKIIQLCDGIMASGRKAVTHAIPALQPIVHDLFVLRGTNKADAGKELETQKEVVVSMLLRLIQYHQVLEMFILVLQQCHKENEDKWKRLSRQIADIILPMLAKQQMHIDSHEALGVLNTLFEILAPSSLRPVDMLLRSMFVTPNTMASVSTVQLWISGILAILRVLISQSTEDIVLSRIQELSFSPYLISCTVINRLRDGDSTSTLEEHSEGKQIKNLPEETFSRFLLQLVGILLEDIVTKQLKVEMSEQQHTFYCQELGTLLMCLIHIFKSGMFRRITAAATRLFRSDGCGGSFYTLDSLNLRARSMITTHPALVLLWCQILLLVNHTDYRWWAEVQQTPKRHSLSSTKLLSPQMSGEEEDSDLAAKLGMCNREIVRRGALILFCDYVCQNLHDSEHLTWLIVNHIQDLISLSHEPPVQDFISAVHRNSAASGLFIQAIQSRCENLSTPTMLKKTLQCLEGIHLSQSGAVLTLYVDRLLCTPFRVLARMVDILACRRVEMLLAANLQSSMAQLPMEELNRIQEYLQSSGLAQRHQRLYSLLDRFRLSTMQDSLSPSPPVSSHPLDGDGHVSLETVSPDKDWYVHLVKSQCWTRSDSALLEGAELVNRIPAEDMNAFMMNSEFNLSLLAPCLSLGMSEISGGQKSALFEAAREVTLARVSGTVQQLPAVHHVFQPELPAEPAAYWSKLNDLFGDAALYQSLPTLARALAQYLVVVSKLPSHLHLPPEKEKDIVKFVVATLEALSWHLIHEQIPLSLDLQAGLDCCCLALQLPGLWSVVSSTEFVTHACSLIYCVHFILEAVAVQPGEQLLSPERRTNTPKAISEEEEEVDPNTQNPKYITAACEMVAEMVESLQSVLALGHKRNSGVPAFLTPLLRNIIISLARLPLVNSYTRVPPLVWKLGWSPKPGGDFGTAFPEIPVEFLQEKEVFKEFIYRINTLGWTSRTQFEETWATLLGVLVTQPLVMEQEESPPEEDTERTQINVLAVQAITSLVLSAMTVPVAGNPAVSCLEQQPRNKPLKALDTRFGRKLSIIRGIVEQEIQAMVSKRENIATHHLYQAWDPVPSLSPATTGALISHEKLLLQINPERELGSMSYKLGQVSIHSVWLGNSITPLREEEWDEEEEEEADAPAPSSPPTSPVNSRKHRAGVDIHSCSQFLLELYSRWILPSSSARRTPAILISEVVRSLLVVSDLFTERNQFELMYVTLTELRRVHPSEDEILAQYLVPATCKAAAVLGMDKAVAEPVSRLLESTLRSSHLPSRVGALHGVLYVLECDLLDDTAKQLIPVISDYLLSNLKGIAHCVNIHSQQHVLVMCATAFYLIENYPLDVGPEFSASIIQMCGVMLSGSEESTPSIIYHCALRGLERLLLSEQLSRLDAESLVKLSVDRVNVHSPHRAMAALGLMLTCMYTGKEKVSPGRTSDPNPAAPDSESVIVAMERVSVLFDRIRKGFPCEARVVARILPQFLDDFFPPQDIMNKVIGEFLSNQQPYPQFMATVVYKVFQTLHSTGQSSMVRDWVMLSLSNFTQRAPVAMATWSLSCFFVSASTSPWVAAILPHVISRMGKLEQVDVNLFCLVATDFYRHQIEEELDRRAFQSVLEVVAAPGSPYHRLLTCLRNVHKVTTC

Biological target: N171-40Q mutant huntingtin protein (UniProt P42858)
Assay: trapping of a disulfide-linked heterodimer, non-reducing SDS-PAGE and Western blot; cell-free; purified proteins in 50 mM Tris (pH 7.0), 150 mM NaCl incubated at room temperature for one hour, then 50 mM N-ethylmaleimide to block free thiols; reducing or non-reducing SDS-PAGE; both purified

binding | Binder
no binding | thioredoxin 1 (enzyme, UniProt P10599 1-105) MVKQIESKTAFQEALDAAGDKLVVVDFSATWCGPCKMIKPFFHSLSEKYSNVIFLEVDVDDCQDVASECEVKCMPTFQFFKKGQKVGEFSGANKEKLEATINELV
no binding | mutant TRX1 (C35S) (enzyme, UniProt P10599 1-105) MVKQIESKTAFQEALDAAGDKLVVVDFSATWCGPSKMIKPFFHSLSEKYSNVIFLEVDVDDCQDVASECEVKCMPTFQFFKKGQKVGEFSGANKEKLEATINELV
